# Data as given in PubChem BioAssay AID1259297 (Sanger Institute, 2017)
# Purpose: 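siRNA screen across the kinome seeking drug partners in cells of colorectal cancer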 (primary screen)
# Cell system: human RCM1 colorectal cancer cell line
# Knock-down reagent: siRNA pool against human genes
# Challenge: separate arms: DMSO vehicle, or one anchor drug at a mild dose: BYL719 1 µM, cetuximab 5 µg/ml, trametinib 10 nM
# Detection: 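Replicate-mean well viability as a share of non-targeting pool control, a robust z-score without drug, and synergy scores for BYL719, cetuximab and trametinib arms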
# Reading the numbers: viability z-score, knock-down alone: higher = more viable cells than non-targeting controls; viability, knock-down alone (DMSO): higher = more viable cells; synergy score with trametinib: higher = stronger combined killing with trametinib; synergy score with BYL719: higher = stronger combined killing with BYL719
# Hit rule: 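Called essential if knock-down without drug gives a viability robust z-score under -3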
# Calls: active = essential when knocked down alone; inactive = no clear loss of viability alone
# This is one part, drawn at random, of 794 reagents tested. 13 of all reagents (1.6%) were called active. 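Calls reflect knock-down without drug only; drug synergy is judged separately, with scores above 0.15 counted as synergy.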 Unmarked entries are inactive. No viability above 1 is reported: the scale is capped. Not all columns of the deposit are shown. Not stated in the record: the amount of reagent, the time to read-out.
Target gene,"viability z-score, knock-down alone","viability, knock-down alone (DMSO) (fraction of control)",synergy score with trametinib,synergy score with BYL719
BCKDK,0.9,1,0.000948,0.0939
TAOK3,-0.218,0.896,-0.119,-0.0181
GSK3B,0.866,0.997,-0.000814,-0.0758
ACVR1,-0.462,0.874,0.0568,-0.0398
PIK3CG,-0.0524,0.912,0.0784,0.0548
DLG1,-0.442,0.875,-0.022,0.0759
PRPS1,-1.01,0.823,-0.0196,-0.0717
PANK2,0.9,1,0.193,0.0755
NUP98,-3.88 (active),0.556,-0.0292,-0.0547
SGK3,0.441,0.957,-0.00688,-0.0566
CLK4,0.517,0.964,-0.0122,0.0209
PRKCG,-0.357,0.883,0.0194,-0.0549
MYH10,0.496,0.963,0.0644,0.0863
BLK,0.9,1,-0.0259,-0.0728
ERBB3,-1.23,0.802,0.0641,0.0517
CDK13,0.9,1,-0.113,-0.0417

A run of entries of the results above, for reference:
Target gene,"viability z-score, knock-down alone","viability, knock-down alone (DMSO) (fraction of control)",synergy score with trametinib,synergy score with BYL719
PANK2,0.9,1,0.193,0.0755
NUP98,-3.88 (active),0.556,-0.0292,-0.0547
SGK3,0.441,0.957,-0.00688,-0.0566
CLK4,0.517,0.964,-0.0122,0.0209
PRKCG,-0.357,0.883,0.0194,-0.0549

The list goes on:
Target gene,"viability z-score, knock-down alone","viability, knock-down alone (DMSO) (fraction of control)",synergy score with trametinib,synergy score with BYL719
CDK8,0.9,1,0.0402,-0.0728
ULK1,0.9,1,0.0499,-0.0522
FES,-0.568,0.864,0.00244,-0.0508
PTGS1,-0.804,0.842,0.0765,-0.0388
CTCF,-0.264,0.892,0.0012,-0.136
MAP3K11,0.9,1,0.0332,-0.0567
LTK,0.306,0.945,-0.0226,-0.08
SOX9,-0.129,0.904,0.00349,0.0101
CAMKK1,0.9,1,-0.0184,-0.0723
PRPS1L1,0.583,0.971,0.0507,-0.00309
TAOK1,-0.994,0.824,-0.107,-0.0844
RPS6KA4,0.623,0.974,0.193,-0.0658
TYK2,-0.222,0.896,0.0115,-0.0963
PTK2,-0.675,0.854,-0.0166,0.0367
MAST2,0.767,0.988,0.0904,0.0786
THNSL1,0.776,0.988,-0.0673,-0.0573
CRIM1,0.9,1,0.148,0.0532
ELF3,-0.384,0.881,-0.0356,0.0124
SF3B1,-1.24,0.802,-0.183,-0.0625
GUCY2C,0.9,1,0.0545,-0.00913
PRKAB2,-0.569,0.864,0.101,0.0483
KHK,0.46,0.959,0.028,-0.00624
TP53BP1,0.9,1,0.0742,-0.0383
IP6K1,0.9,1,-0.0435,-0.0728
UHMK1,0.163,0.932,-0.0432,-0.0444
PRKX,0.851,0.995,0.13,-0.0771
IRAK4,-1.07,0.817,0.0417,-0.092
AK7,0.58,0.97,-0.131,-0.1
AXIN2,0.78,0.989,0.00812,0.0111
CTNNB1,0.779,0.989,-0.23,0.0297
STYK1,-1.01,0.823,0.0812,-0.081
INSRR,0.618,0.974,-0.00797,-0.0323
EPHB2,-0.617,0.859,-0.0253,-0.0757
TLK1,-1.53,0.774,0.11,0.0384
